Laboratory results: article PMC12384166
Results are given in words; binding and its absence hold for the method and conditions named. Some entries that bind do so weakly or less than the wild type.

The chains behind the UniProt entries cited, without tags or fusion partners.
UniProt Q8K1M6: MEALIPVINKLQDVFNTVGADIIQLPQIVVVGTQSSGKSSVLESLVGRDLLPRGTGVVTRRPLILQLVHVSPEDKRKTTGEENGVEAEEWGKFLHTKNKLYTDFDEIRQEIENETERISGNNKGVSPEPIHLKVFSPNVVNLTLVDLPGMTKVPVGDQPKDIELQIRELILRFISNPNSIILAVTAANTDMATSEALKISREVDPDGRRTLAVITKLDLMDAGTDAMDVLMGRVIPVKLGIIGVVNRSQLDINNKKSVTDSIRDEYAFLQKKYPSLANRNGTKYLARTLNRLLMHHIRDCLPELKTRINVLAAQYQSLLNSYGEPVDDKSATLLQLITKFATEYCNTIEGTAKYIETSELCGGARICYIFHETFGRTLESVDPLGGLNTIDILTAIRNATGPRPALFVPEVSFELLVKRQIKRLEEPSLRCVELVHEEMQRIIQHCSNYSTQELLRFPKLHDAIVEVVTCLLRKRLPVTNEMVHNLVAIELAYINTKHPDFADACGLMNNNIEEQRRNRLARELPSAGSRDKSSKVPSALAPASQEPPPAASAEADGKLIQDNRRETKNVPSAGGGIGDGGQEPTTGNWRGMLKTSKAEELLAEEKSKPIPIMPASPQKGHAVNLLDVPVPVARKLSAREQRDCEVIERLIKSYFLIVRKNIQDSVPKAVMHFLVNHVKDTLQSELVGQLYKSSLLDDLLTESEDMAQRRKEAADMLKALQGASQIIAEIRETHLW

Target: dynamin-related protein 1 (DRP1) (mouse (endogenous in mouse heart)) (UniProt Q8K1M6)
Assay: native gel or EMSA; Cyt, SR and MAM fractions solubilised with 3% digitonin; first dimension 3-12% light blue native PAGE, second dimension 4-12% Bis-Tris SDS-PAGE; blot for DRP1

binding: binds
Substance: dynamin-related protein 1 (DRP1) (from UniProt Q8K1M6 1-736)
